Experimental data from patent US7632972B2, “Compounds and methods for treatment of cancer and modulation of programmed cell death for melanoma and other cancer cells” (The Board of Trustees of the University of Illionis, priority 2003, dated 2009).

Experiments:
Format in all cases: cell-based, human
[1] = tested on: BT-549; experiment: NCI 60 cell line screen (SRB), Breast Cancer
Text: (§1) The operation of this screen utilizes 60 different human tumor cell lines, representing leukemia, melanoma and cancers of the lung, colon, brain, ovary, breast, prostate, and kidney. The aim is to prioritize for further evaluation, synthetic compounds or natural product samples showing selective growth inhibition or cell killing of particular tumor cell lines. This screen is unique in that the complexity of a 60 cell line dose response produced by a given compound results in a biological response pattern which can be utilized in pattern recognition algorithms. Using these algorithms, it is possible to assign a putative mechanism of action to a test compound, or to determine that the response pattern is unique and not similar to that of any of the standard prototype compounds included in the NCl database (see DTP Overview tab). In addition, following characterization of various cellular molecular targets in the 60 cell lines, it may be possible to select compounds most likely to interact with a specific molecular target.
(§2) The human tumor cell lines of the cancer screening panel are grown in RPMI 1640 medium containing 5% fetal bovine serum and 2 mM L-glutamine. For a typical screening experiment, cells are inoculated into 96 well microtiter plates in 100 μL at plating densities ranging from 5,000 to 40,000 cells/well depending on the doubling time of individual cell lines. After cell inoculation, the microtiter plates are incubated at 37° C., 5% CO2, 95% air and 100% relative humidity for 24 h prior to addition of experimental drugs.
(§3) After 24 h, two plates of each cell line are fixed in situ with TCA, to represent a measurement of the cell population for each cell line at the time of drug addition (Tz). Experimental drugs are solubilized in dimethyl sulfoxide at 400-fold the desired final maximum test concentration and stored frozen prior to use. At the time of drug addition, an aliquot of frozen concentrate is thawed and diluted to twice the desired final maximum test concentration with complete medium containing 50 μg/ml gentamicin. Additional four, 10-fold or ½ log serial dilutions are made to provide a total of five drug concentrations plus control. Aliquots of 100 μl of these different drug dilutions are added to the appropriate microtiter wells already containing 100 μl of medium, resulting in the required final drug concentrations.
(§4) Following drug addition, the plates are incubated for an additional 48 h at 37° C., 5% CO2, 95% air, and 100% relative humidity. For adherent cells, the assay is terminated by the addition of cold TCA. Cells are fixed in situ by the gentle addition of 50 μl of cold 50% (w/v) TCA (final concentration, 10% TCA) and incubated for 60 minutes at 4° C. The supernatant is discarded, and the plates are washed five times with tap water and air dried. Sulforhodamine B (SRB) solution (100 μl) at 0.4% (w/v) in 1% acetic acid is added to each well, and plates are incubated for 10 minutes at room temperature. After staining, unbound dye is removed by washing five times with 1% acetic acid and the plates are air dried. Bound stain is subsequently solubilized with 10 mM trizma base, and the absorbance is read on an automated plate reader at a wavelength of 515 nm. For suspension cells, the methodology is the same except that the assay is terminated by fixing settled cells at the bottom of the wells by gently adding 50 μl of 80% TCA (final concentration, 16% TCA). Using the seven absorbance measurements [time zero, (Tz), control growth, (C), and test growth in the presence of drug at the five concentration levels (Ti)], the percentage growth is calculated at each of the drug concentrations levels. Percentage growth inhibition is calculated as: [(Ti−Tz)/(C−Tz)]×100 for concentrations for which Ti>/=Tz [(Ti−Tz)/Tz]×100 for concentrations for which Ti<Tz.
(§5) Three dose response parameters are calculated for each experimental agent. […]

[2] = tested on: NCI/ADR-RES; experiment: NCI 60 cell line screen (SRB), Breast Cancer
Text: as §1, §2, §3, §4, §5

[3] = tested on: T-47D; experiment: NCI 60 cell line screen (SRB), Breast Cancer
Text: as §1, §2, §3, §4, §5

[4] = tested on: MDA-MB-435; experiment: NCI 60 cell line screen (SRB), Breast Cancer
Text: as §1, §2, §3, §4, §5

[5] = tested on: UACC-62; experiment: NCI 60 cell line screen (SRB), Melanoma
Text: as §1, §2, §3, §4, §5

[6] = tested on: SK-MEL-2; experiment: NCI 60 cell line screen (SRB), Melanoma
Text: as §1, §2, §3, §4, §5

[7] = tested on: SK-MEL-5; experiment: NCI 60 cell line screen (SRB), Melanoma
Text: as §1, §2, §3, §4, §5

[8] = tested on: SK-MEL-28; experiment: NCI 60 cell line screen (SRB), Melanoma
Text: as §1, §2, §3, §4, §5

[9] = tested on: IGROV1; experiment: NCI 60 cell line screen (SRB), Ovarian Cancer
Text: as §1, §2, §3, §4, §5

[10] = tested on: HCT-15; experiment: NCI 60 cell line screen (SRB), Colon Cancer
Text: as §1, §2, §3, §4, §5

[11] = tested on: HCT-116; experiment: NCI 60 cell line screen (SRB), Colon Cancer
Text: as §1, §2, §3, §4, §5

With COc1cccc(CCNC(=O)CC(c2ccccc2)(c2ccccc2)c2ccccc2)c1 [Compound Z3] as the compound, how does the “Mean Optical Densities” value ([1]; BT-549, Log10 Concentration −4.0) read?
Its value is 0.485.

And the “Mean Optical Densities” value ([1]; BT-549, Log10 Concentration −5.0)?
The value was 0.518.

And the “Mean Optical Densities” value ([1]; BT-549, Log10 Concentration −6.0)?
Its value is 0.591.

What about the “Mean Optical Densities” value ([1]; BT-549, Log10 Concentration −7.0) of the same compound?
The value was 0.641.

What about the “Mean Optical Densities” value ([1]; BT-549, Log10 Concentration −8.0) of the same compound?
The value was 0.571.

And the “Mean Optical Densities” value ([2]; Log10 Concentration −4.0)?
Its value is 0.324.

What about the “Mean Optical Densities” value ([2]; Log10 Concentration −5.0) of the same compound?
Its value is 0.356.

What about the “Mean Optical Densities” value ([2]; Log10 Concentration −6.0) of the same compound?
Its value is 0.413.

What about the “Mean Optical Densities” value ([2]; Log10 Concentration −7.0) of the same compound?
The value was 0.462.

And the “Mean Optical Densities” value ([2]; Log10 Concentration −8.0)?
The value was 0.411.

And the “Mean Optical Densities” value ([3]; Log10 Concentration −4.0)?
Its value is 0.631.

What about the “Mean Optical Densities” value ([3]; Log10 Concentration −5.0) of the same compound?
Its value is 0.549.

What about the “Mean Optical Densities” value ([3]; Log10 Concentration −6.0) of the same compound?
The value was 0.613.

What about the “Mean Optical Densities” value ([3]; Log10 Concentration −7.0) of the same compound?
The value was 0.700.

What about the “Mean Optical Densities” value ([3]; Log10 Concentration −8.0) of the same compound?
Its value is 0.615.

And the “Mean Optical Densities” value ([4]; MDA-MB-435, Log10 Concentration −4.0)?
The value was 1.301.

And the “Mean Optical Densities” value ([4]; MDA-MB-435, Log10 Concentration −5.0)?
The value was 1.398.

What about the “Mean Optical Densities” value ([4]; MDA-MB-435, Log10 Concentration −6.0) of the same compound?
The value was 1.779.

What about the “Mean Optical Densities” value ([4]; MDA-MB-435, Log10 Concentration −7.0) of the same compound?
The value was 1.913.

What about the “Mean Optical Densities” value ([4]; MDA-MB-435, Log10 Concentration −8.0) of the same compound?
The value was 1.780.

And the “Mean Optical Densities” value ([5]; UACC-62, Log10 Concentration −4.0)?
The value was 0.783.

What about the “Mean Optical Densities” value ([5]; UACC-62, Log10 Concentration −5.0) of the same compound?
Its value is 0.753.

What about the “Mean Optical Densities” value ([5]; UACC-62, Log10 Concentration −6.0) of the same compound?
Its value is 0.861.

And the “Mean Optical Densities” value ([5]; UACC-62, Log10 Concentration −7.0)?
Its value is 1.029.

And the “Mean Optical Densities” value ([5]; UACC-62, Log10 Concentration −8.0)?
The value was 1.074.

And the “Mean Optical Densities” value ([6]; SK-MEL-2, Log10 Concentration −4.0)?
The value was 0.772.

What about the “Mean Optical Densities” value ([6]; SK-MEL-2, Log10 Concentration −5.0) of the same compound?
The value was 0.805.

What about the “Mean Optical Densities” value ([6]; SK-MEL-2, Log10 Concentration −6.0) of the same compound?
The value was 1.211.

What about the “Mean Optical Densities” value ([6]; SK-MEL-2, Log10 Concentration −7.0) of the same compound?
Its value is 1.144.

What about the “Mean Optical Densities” value ([6]; SK-MEL-2, Log10 Concentration −8.0) of the same compound?
The value was 1.116.

What about the “Mean Optical Densities” value ([7]; SK-MEL-5, Log10 Concentration −4.0) of the same compound?
Its value is 0.700.

And the “Mean Optical Densities” value ([7]; SK-MEL-5, Log10 Concentration −5.0)?
The value was 0.745.

What about the “Mean Optical Densities” value ([7]; SK-MEL-5, Log10 Concentration −6.0) of the same compound?
The value was 1.438.

What about the “Mean Optical Densities” value ([7]; SK-MEL-5, Log10 Concentration −7.0) of the same compound?
The value was 1.431.

And the “Mean Optical Densities” value ([7]; SK-MEL-5, Log10 Concentration −8.0)?
The value was 1.192.

And the “Mean Optical Densities” value ([8]; SK-MEL-28, Log10 Concentration −4.0)?
Its value is 0.472.

What about the “Mean Optical Densities” value ([8]; SK-MEL-28, Log10 Concentration −5.0) of the same compound?
Its value is 0.499.

And the “Mean Optical Densities” value ([8]; SK-MEL-28, Log10 Concentration −6.0)?
Its value is 0.479.

And the “Mean Optical Densities” value ([8]; SK-MEL-28, Log10 Concentration −7.0)?
The value was 0.503.

What about the “Mean Optical Densities” value ([8]; SK-MEL-28, Log10 Concentration −8.0) of the same compound?
Its value is 0.444.

And the “Mean Optical Densities” value ([9]; IGROV1, Log10 Concentration −4.0)?
The value was 0.342.

And the “Mean Optical Densities” value ([9]; IGROV1, Log10 Concentration −5.0)?
Its value is 0.367.

And the “Mean Optical Densities” value ([9]; IGROV1, Log10 Concentration −6.0)?
The value was 0.371.

What about the “Mean Optical Densities” value ([9]; IGROV1, Log10 Concentration −7.0) of the same compound?
The value was 0.460.

And the “Mean Optical Densities” value ([9]; IGROV1, Log10 Concentration −8.0)?
Its value is 0.384.

And the “Mean Optical Densities” value ([10]; HCT-15, Log10 Concentration −4.0)?
Its value is 0.567.

What about the “Mean Optical Densities” value ([10]; HCT-15, Log10 Concentration −5.0) of the same compound?
The value was 0.599.

What about the “Mean Optical Densities” value ([10]; HCT-15, Log10 Concentration −6.0) of the same compound?
Its value is 0.758.

And the “Mean Optical Densities” value ([10]; HCT-15, Log10 Concentration −7.0)?
Its value is 0.844.

What about the “Mean Optical Densities” value ([10]; HCT-15, Log10 Concentration −8.0) of the same compound?
Its value is 0.867.

And the “Mean Optical Densities” value ([11]; HCT-116, Log10 Concentration −4.0)?
The value was 0.212.

What about the “Mean Optical Densities” value ([11]; HCT-116, Log10 Concentration −5.0) of the same compound?
Its value is 0.345.

And the “Mean Optical Densities” value ([11]; HCT-116, Log10 Concentration −6.0)?
Its value is 0.598.

What about the “Mean Optical Densities” value ([11]; HCT-116, Log10 Concentration −7.0) of the same compound?
The value was 0.673.

And the “Mean Optical Densities” value ([11]; HCT-116, Log10 Concentration −8.0)?
Its value is 0.701.
